# In PubChem BioAssay (NCATS):
# Amino acid sequences for entries named in this document (tags omitted). A change or cut given only in a name is not applied to a line headed by its entry.
# UniProt Q03181: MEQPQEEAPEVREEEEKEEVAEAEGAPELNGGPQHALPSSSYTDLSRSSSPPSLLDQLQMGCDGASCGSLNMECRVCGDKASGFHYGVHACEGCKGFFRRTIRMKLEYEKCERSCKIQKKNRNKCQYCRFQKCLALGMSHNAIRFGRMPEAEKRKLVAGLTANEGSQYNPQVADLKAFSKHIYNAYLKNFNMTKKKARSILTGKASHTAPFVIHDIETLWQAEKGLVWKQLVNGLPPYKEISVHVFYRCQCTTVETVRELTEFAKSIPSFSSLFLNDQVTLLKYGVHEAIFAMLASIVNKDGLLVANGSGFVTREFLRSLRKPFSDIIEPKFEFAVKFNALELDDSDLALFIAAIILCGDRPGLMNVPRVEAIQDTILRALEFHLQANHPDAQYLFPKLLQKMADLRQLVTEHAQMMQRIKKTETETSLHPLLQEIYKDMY
# UniProt P19793: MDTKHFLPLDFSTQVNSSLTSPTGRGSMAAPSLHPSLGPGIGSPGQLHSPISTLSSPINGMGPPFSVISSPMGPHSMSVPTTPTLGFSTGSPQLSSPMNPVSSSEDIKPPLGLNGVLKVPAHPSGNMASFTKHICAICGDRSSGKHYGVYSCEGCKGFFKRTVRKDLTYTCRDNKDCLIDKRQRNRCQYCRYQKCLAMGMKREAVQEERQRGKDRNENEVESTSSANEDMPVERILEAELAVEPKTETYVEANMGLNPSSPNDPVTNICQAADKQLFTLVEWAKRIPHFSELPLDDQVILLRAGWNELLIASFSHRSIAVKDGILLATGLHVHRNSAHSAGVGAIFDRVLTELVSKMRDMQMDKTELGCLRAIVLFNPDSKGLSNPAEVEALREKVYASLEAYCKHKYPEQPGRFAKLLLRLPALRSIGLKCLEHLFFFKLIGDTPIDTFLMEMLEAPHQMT
# UniProt P10828: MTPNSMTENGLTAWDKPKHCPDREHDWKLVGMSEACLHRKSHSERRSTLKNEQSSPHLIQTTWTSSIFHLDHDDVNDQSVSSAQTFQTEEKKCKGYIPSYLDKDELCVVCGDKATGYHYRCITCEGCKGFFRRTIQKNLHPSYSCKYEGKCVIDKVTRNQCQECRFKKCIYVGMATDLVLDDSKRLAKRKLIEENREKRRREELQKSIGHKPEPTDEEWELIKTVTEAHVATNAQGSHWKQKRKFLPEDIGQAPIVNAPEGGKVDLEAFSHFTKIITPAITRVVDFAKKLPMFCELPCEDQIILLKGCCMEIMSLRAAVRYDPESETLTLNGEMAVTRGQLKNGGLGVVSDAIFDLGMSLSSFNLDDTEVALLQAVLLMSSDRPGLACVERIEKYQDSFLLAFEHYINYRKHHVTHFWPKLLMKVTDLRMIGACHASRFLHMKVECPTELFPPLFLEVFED
# UniProt Q12809: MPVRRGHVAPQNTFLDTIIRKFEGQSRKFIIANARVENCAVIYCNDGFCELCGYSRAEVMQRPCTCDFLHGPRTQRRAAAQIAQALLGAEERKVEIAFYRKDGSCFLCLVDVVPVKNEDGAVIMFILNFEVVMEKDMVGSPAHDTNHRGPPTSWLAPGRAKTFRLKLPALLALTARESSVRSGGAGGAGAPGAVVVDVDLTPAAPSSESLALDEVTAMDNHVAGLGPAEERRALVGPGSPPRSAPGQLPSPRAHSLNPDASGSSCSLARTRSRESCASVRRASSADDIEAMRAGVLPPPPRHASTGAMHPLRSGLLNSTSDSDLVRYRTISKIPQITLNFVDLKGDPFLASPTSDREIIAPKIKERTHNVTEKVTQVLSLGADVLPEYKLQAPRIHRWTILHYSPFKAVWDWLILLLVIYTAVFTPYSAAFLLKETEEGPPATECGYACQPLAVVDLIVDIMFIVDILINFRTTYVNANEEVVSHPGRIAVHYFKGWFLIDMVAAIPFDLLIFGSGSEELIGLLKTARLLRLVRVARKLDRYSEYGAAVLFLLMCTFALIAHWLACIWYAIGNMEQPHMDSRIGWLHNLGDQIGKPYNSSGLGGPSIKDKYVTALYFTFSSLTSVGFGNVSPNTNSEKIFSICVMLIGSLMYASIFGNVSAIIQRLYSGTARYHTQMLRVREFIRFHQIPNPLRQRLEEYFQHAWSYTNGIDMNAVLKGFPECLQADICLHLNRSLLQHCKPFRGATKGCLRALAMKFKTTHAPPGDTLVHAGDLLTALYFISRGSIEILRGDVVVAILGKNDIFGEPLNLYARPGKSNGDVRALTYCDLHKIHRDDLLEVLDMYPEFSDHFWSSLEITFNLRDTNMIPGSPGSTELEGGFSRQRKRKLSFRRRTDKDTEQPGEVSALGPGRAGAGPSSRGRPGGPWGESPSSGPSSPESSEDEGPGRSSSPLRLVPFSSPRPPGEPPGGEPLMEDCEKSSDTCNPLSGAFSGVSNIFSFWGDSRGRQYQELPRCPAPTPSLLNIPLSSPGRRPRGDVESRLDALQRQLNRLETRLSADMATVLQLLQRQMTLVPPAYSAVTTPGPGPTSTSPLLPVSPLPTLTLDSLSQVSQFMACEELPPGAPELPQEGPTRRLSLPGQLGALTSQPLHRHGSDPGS
# UniProt P51449: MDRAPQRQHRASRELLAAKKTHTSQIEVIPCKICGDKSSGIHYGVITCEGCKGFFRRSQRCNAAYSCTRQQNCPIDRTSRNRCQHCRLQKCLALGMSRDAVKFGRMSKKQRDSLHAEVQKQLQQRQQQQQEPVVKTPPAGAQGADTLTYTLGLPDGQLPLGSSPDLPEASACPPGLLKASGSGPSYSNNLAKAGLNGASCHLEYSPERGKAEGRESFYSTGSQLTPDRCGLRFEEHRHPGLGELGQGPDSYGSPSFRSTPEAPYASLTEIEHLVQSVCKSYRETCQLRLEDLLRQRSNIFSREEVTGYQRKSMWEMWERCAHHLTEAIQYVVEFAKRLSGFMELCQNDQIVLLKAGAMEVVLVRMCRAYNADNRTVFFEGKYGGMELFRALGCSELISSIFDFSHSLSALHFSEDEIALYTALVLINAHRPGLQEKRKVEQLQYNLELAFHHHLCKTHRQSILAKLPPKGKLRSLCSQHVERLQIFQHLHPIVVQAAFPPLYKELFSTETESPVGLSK
# The shares of active, inactive and inconclusive entries below differ from those in the screen. For some assays here: Potencies of inconclusive entries are doubtful fits and often do not repeat. For some assays here: A note “side channel” means that the fit belongs to a control or component signal, not to the main read-out. The source made the active and inactive calls. Unless noted, calls come from the whole dose curve.
# Assays:
# [1] = target: Peroxisome proliferator-activated receptor delta (Homo sapiens) (UniProt Q03181); test: qHTS assay for small molecule antagonists of peroxisome proliferator-activated receptor delta signaling (AID 588535; active = well fitted inhibition curve with a large enough effect in the signal ratio, with a control signal flat, not every such curve was filed as active; inconclusive = small, poorly fitted or top-dose-only effect, or effect the other way, or a change in a side signal; inactive = no such curve, though single readings can be large or run the other way; the % refers to the signal ratio); details: HEK293T PPARd-UAS-bla, beta-lactamase FRET ratio, 18 h; activity change, negative = inhibition: at 76.7 µM (top of the series) unless noted
# In short: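 HEK293T PPAR-delta-UAS-bla cells, 4000/well, 2% charcoal/dextran FBS; 5 h 37 C; cpd titration; 18 h 37 C; CCF4 2 h RT; FI 460/530 nm; Hill fit → IC50, efficacy.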
# [2] = target: Peroxisome proliferator-activated receptor gamma (Homo sapiens) (UniProt P37231); test: qHTS assay for small molecule agonists of peroxisome proliferator-activated receptor gamma signaling (AID 588536; active = well fitted curve in the direction sought with a large enough effect in the signal ratio, with a control signal flat, not every such curve was filed as active; inconclusive = small, poorly fitted or top-dose-only effect, or effect the other way, or a change in a side signal; inactive = no such curve, though single readings can be large or run the other way; the % refers to the signal ratio; note: potency is the fitted concentration of half-maximal effect;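 for activation: 0% = DMSO basal wells and 100% = rosiglitazone at 2 µM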); details: HEK293 PPARg-UAS-bla, beta-lactamase ratio, 16 h; activation: at 76.7 µM (top of the series), percent of rosiglitazone response, DMSO as zero unless noted
# In short: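 GeneBLAzer PPAR-gamma-UAS-bla HEK293 cells in 1% charcoal/dextran-treated FBS medium were treated 16 h at 37 C with compounds. Beta-lactamase activity was read by CCF4 ratio (460/530 nm). Response was normalized to 2 uM rosiglitazone (100%) and DMSO, then Hill-fitted for EC50 and efficacy.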
# [3] = target: Peroxisome proliferator-activated receptor gamma (Homo sapiens) (UniProt P37231); test: qHTS assay for small molecule antagonists of peroxisome proliferator-activated receptor gamma signaling (AID 588537; active = well fitted inhibition curve with a large enough effect in the signal ratio, with a control signal flat, not every such curve was filed as active; inconclusive = small, poorly fitted or top-dose-only effect, or effect the other way, or a change in a side signal; the % refers to the signal ratio;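 note: reporter cells co-stimulated with 50 nM rosiglitazone agonist during compound treatment; % of control where 0% means no effect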); details: HEK293 PPARg-UAS-bla, beta-lactamase ratio, antagonist mode; activity, negative = inhibition: at 76.8 µM (top of the series)
# In short: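 Antagonist mode, beta-lactamase reporter in HEK293; charcoal/dextran FBS 1%; 3000 cells/well, 37 C 6-6.5 h; cpd titration + rosiglitazone 50 nM final, 16 h 37 C; CCF4, 2 h RT; 460/530 nm; Hill fit → IC50, efficacy.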
# [4] = target: Vitamin D3 receptor (Homo sapiens) (UniProt P11473); test: qHTS assay for small molecule antagonists of vitamin D receptor signaling (AID 588541); details: HEK293T VDR-UAS-bla, beta-lactamase ratio, antagonist mode; activity change, negative = inhibition: at 76.7 µM (top of the series); note: potency is the fitted concentration of half-maximal effect
# [5] = target: Retinoic acid receptor RXR-alpha (Homo sapiens) (UniProt P19793); test: qHTS assay for small molecule agonists of retinoid X receptor alpha signaling (AID 588544); details: HEK293T RXRa-UAS-bla, beta-lactamase reporter, 18 h; activation: at 76.7 µM (top of the series) unless noted;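 note: 0% = DMSO basal wells and 100% = reference agonist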
# [6] = qHTS assay for small molecule agonists of the antioxidant response element (ARE) signaling pathway (AID 651741; active = well fitted activation curve with a large enough effect in the signal ratio; inconclusive = small, poorly fitted or top-dose-only effect, or effect the other way, or a change in a side signal; the % refers to the signal ratio; note: potency is the fitted concentration of half-maximal effect; for activation: % of control where 0% means no effect); details: HepG2 ARE-bla reporter, beta-lactamase FRET ratio, 16 h; activation: at 96 µM (top of the series) unless noted
# In short: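 Quantitative HTS in HepG2 cells stably expressing an ARE-beta-lactamase reporter; 16 h compound exposure at 37 C, followed by 2 h room-temperature incubation with LiveBLAzer B/G FRET substrate and fluorescence measurement.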
# [7] = qHTS assay for small molecule agonists of the antioxidant response element (ARE) signaling pathway measured by Nrf2-dependant transcriptional activity (AID 720636; active = well fitted curve in the direction sought with a large enough effect in the repeat runs; inconclusive = weak or mixed curves; inactive = no such curve, though single readings can be large; an effect the other way counts as inactive or inconclusive; note: potency is the fitted concentration of half-maximal effect;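 for activation: HepG2 cells with an ARE-driven luciferase reporter; % of control where 0% means no effect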)
# In short: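 Attachment 6 hr at 37 C, then compound versus DMSO vehicle for 16 hr in ARE-luc HepG2 cells (1% dialyzed FBS); luminescence recorded 30 min after ONE-Glo addition at room temperature.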
# [8] = MultiTox-Fluor Cytotoxicity Assay - LYMP1-001 - Live Cells (AID 947; active = well fitted curve in the direction sought with a large enough effect; inconclusive = small, poorly fitted or top-dose-only effect, or another doubt; inactive = no such curve, though single readings can be large; an effect the other way counts as inactive or inconclusive;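 note: 0% = DMSO only and full inhibition = tetraoctylammonium bromide control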)
# [9] = target: Thyroid hormone receptor beta (Homo sapiens) (UniProt P10828); test: qHTS assay for small molecule antagonists of thyroid hormone receptor beta signaling (AID 588547; active = well fitted inhibition curve with a large enough effect in the signal ratio, with a control signal flat, not every such curve was filed as active; inconclusive = small, poorly fitted or top-dose-only effect, or effect the other way, or a change in a side signal; the % refers to the signal ratio;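 note: cells stimulated with 0.4 nM T3 agonist during compound exposure; % is set by controls: 0 for no effect and ±100 for the full control effect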); details: TR-UAS-bla HEK293, beta-lactamase ratio, antagonist mode, 18 h
# In short: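 Inhibition of T3-driven (0.4nM final) beta-lactamase reporter activity was measured over 0.59 nM to 92 uM compound after 18 h at 37 C. The cells were GripTite HEK293 TR-UAS-bla in charcoal/dextran-stripped serum, with CCF4 ratio read-out and IC50 from Hill fits.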
# [10] = target: Voltage-gated inwardly rectifying potassium channel KCNH2 (Homo sapiens) (UniProt Q12809); test: qHTS Assay for Small Molecule Inhibitors of the Human hERG Channel Activity (AID 588834; active = well fitted curve in the direction sought with a large enough effect; inconclusive = small, poorly fitted or top-dose-only effect, or another doubt; inactive = no such curve, though single readings can be large; an effect the other way counts as inactive or inconclusive;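 note: top concentration of the series differs between compounds; % is set by controls: 0 for no effect and ±100 for the full control effect; lower thallium flux fluorescence means stronger hERG block; nearly all actives have a fitted effect of over 50% in size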); details: U2OS BacMam hERG, FluxOR thallium flux fluorescence; at 92.2 µM (top of the series)
# In short: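 Kinetic FDSS fluorescence; U2OS + hERG BacMam (~100 virus particles/cell); FluxOR Tl+ flux; ~10 min cpd; AC50 (Hill).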
# [11] = qHTS assay for small molecule disruptors of the mitochondrial membrane potential - 1 hr assay (AID 651754); details: ratio change, negative = depolarisation: at 92.2 µM (top of the series); note: % is set by controls: 0 for no effect and ±100 for the full control effect; nearly all actives have a fitted effect of over 35% in size
# In short: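 HepG2 cells, attached overnight, were exposed to compound for 1 hr at 37C, then stained 30 min with a potentiometric dye. Ratio of red aggregate (590nm) to green monomer (535nm) fluorescence reports membrane potential; collapse shifts signal toward green.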
# [12] = qHTS assay to identify small molecules that stimulate interleukin-8 (IL-8) secretion (AID 651758; active = well fitted activation curve with a large enough effect in the signal ratio; inconclusive = small, poorly fitted or top-dose-only effect, or effect the other way, or a change in a side signal; the % refers to the signal ratio; note: potency is the fitted concentration of half-maximal effect; for activation: 0% is about no effect); details: HTRF ratio (665/615); activation: at 92.2 µM (top of the series)
# In short: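 Secreted IL-8 measured by TR-FRET sandwich (cryptate and XL665 antibodies) from THP-1 cells exposed to compound overnight (16 hrs, 37 C).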
# [13] = target: Nuclear receptor ROR-gamma (Homo sapiens) (UniProt P51449); test: qHTS assay for small molecule antagonists of the retinoid-related orphan receptor gamma (ROR-gamma) signaling pathway (AID 651802; active = well fitted curve in the direction sought with a large enough effect; inconclusive = small, poorly fitted or top-dose-only effect, or another doubt; inactive = no such curve, though single readings can be large; an effect the other way counts as inactive or inconclusive; note: nearly all actives have a fitted effect of over 60% in size; note: potency is the fitted concentration of half-maximal effect;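 for activity change, negative = inhibition: luciferase reporter luminescence driven by ROR response element; % is set by controls: 0 for no effect and ±100 for the full control effect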)
# In short: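 CHO cells with TET-inducible ROR-gamma and RORE-luciferase reporter, dosed then doxycycline-induced. After 16 h at 37C, One-Glo luminescence read; decreased signal indicates antagonism.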
# [14] = target: Peroxisome proliferator-activated receptor delta (Homo sapiens) (UniProt Q03181); test: qHTS assay for small molecule agonists of peroxisome proliferator-activated receptor delta signaling (AID 588534); details: HEK293T PPARdelta-UAS-bla, beta-lactamase ratio, 18 h; activation: at 76.7 µM (top of the series);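 note: 0% = DMSO basal wells and 100% = positive control agonist at 10 µM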
# In short: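 Cells carrying a PPAR-delta beta-lactamase reporter were treated with compounds for 18 h at 37 °C in agonist mode. CCF4 fluorescence was read after 2 h; EC50 and efficacy from Hill fits.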
# [15] = target: Retinoic acid receptor RXR-alpha (Homo sapiens) (UniProt P19793); test: qHTS assay for small molecule antagonists of retinoid X receptor alpha signaling (AID 588546; active = well fitted inhibition curve with a large enough effect in the signal ratio, with a control signal flat, not every such curve was filed as active; inconclusive = small, poorly fitted or top-dose-only effect, or effect the other way, or a change in a side signal; inactive = no such curve, though single readings can be large or run the other way; the % refers to the signal ratio;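 note: cells stimulated with 9-cis-retinoic acid as agonist; % is set by controls: 0 for no effect and ±100 for the full control effect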); details: HEK293T RXRa-UAS-bla, beta-lactamase ratio, antagonist mode
# In short: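 Beta-lactamase reporter inhibition, read as CCF4 fluorescence ratio (ex 405, em 460/530 nm) after 2 h at RT. HEK293T UAS-bla cells, 2500/well, were stimulated with 9-cis-RA at 500 or 100 nM final alongside test compound for 18 h at 37 C.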
# [16] = target: Thyroid hormone receptor beta (Homo sapiens) (UniProt P10828); test: qHTS assay for small molecule agonists of thyroid hormone receptor beta signaling (AID 588545); details: TR-UAS-bla GripTite HEK 293, beta-lactamase ratio, agonist mode, 18 h; activation: at 76.7 µM, percent of T3 response, DMSO as zero;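 note: 0% = DMSO only and 100% = 10 nM T3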
# In short: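 Compounds were tested as agonists in TR-UAS-bla-GripTite HEK 293 cells. After 18 hrs at 37 C, CCF4 substrate was added and fluorescence read after 2 hrs at room temperature.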
# [17] = qHTS assay for small molecule antagonists of the retinoid-related orphan receptor gamma (ROR-gamma) signaling pathway - cell viability counter screen (AID 720652; active = well fitted curve in the direction sought with a large enough effect in the repeat runs; inconclusive = weak or mixed curves; inactive = no such curve, though single readings can be large; an effect the other way counts as inactive or inconclusive;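 note: compound exposure lasted 16 hr before ATP read; % is set by controls: 0 for no effect and ±100 for the full control effect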)
# In short: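 CHO cells carrying TET-inducible ROR and RORE-luciferase reporter, plated 5 hr, then dosed with compound plus doxycycline. After 16 hr at 37 C, viability read as intracellular ATP by CellTiter-Glo luminescence.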
# [18] = MultiTox-Fluor Cytotoxicity Assay - LYMP1-003 - Live Cells (AID 962; active = well fitted curve in the direction sought with a large enough effect; inconclusive = small, poorly fitted or top-dose-only effect, or another doubt; inactive = no such curve, though single readings can be large; an effect the other way counts as inactive or inconclusive;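 note: 0% = DMSO only and full loss = 92 µM tetraoctylammonium bromide; cytotoxic hits lower the live-cell protease signal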)
# In short: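 LYMP1-003 lymphoblastoid cells, 2500/well in complete medium, treated 16 h at 37 C; live-cell protease cleavage of GF-AFC read by fluorescence (Ex/Em 405/510) after 60 min reagent; AC50 from Hill fits of concentration-response.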
compound,measurement,setting,value
O=[N+]([O-])c1ccc(Oc2ccc(C(F)(F)F)cc2[N+](=O)[O-])cc1,"activity change, negative = inhibition",[1],inconclusive: -94%
same,Potency,[2],active: 3.55 µM
same,"activity, negative = inhibition",[3],inconclusive: -47.8%
same,Potency,[4],"inconclusive: 0.004 µM [side channel, rising, full curve, poor fit]"
same,activation,[5],inconclusive: -24.6%
same,Potency,[6],active: 48.6 µM
same,Potency,[7],"inconclusive: 61.1 µM [activator, partial curve, poor fit]"
O=[N+]([O-])c1ccc(Cl)c(Cl)c1Cl,Potency,[8],inactive
same,Potency,[1],inactive
same,"activity, negative = inhibition",[3],inconclusive: -6.99%
same,activity change % (negative = inhibition),[9],inconclusive: 1.39%
same,"activity change, negative = inhibition",[10],inactive: 19.7%
same,Potency,[6],"inconclusive: 29.8 µM [activator, partial curve]"
same,"ratio change, negative = depolarisation",[11],inconclusive: 0.787%
same,Potency,[12],"inconclusive: 75 µM [inhibitor, partial curve, poor fit]"
same,Potency,[13],inactive
C1=Cc2cccc3cccc1c23,Potency,[14],inactive
same,Potency,[3],inactive
same,Potency,[4],inactive
same,max response,[15],inconclusive: -31.3%
same,Potency,[6],"inconclusive: 68.6 µM [activator, single point]"
CCOC(=O)Nc1cccc(OC(=O)Nc2ccccc2)c1,Potency,[1],inactive
same,max response,[15],inactive: -20.8%
same,Potency,[6],active: 24.3 µM
same,Potency,[7],"inconclusive: 34.4 µM [activator, partial curve, poor fit]"
CC[N+](=O)[O-],"activity change, negative = inhibition",[1],inconclusive: -1.24%
same,Potency,[2],inactive
same,Potency,[3],inactive
same,activation,[16],inconclusive: -46.1%
same,Potency,[6],inactive
same,activation,[12],inconclusive: 23.5%
same,Potency,[13],inactive
same,Potency,[17],inactive
CCOP(=O)(SC(C)CC)N1CCSC1=O (configuration not stated),"activity change, negative = inhibition",[1],inconclusive: -5.82%
same,"activity change, negative = inhibition",[4],inconclusive: 1.79%
same,activation,[5],inconclusive: 14.3%
same,Potency,[7],inactive
O=Cc1ccc2c(c1)OCO2,Potency,[18],inactive
same,Potency,[1],inactive
same,"activity, negative = inhibition",[3],inconclusive: 2.71%
same,Potency,[6],inactive
same,Potency,[12],inactive
CC(=O)CCC(C)=O,Potency,[1],inactive
same,"activity, negative = inhibition",[3],inconclusive: 11.5%
same,activation,[16],inactive: -2.81%
same,activation,[12],inconclusive: -2.46%
same,Potency,[13],"inconclusive: 0.376 µM [inhibitor, full curve, poor fit]"

# Copied from the entries so far (eleven entries):
compound,measurement,setting,value
C1=Cc2cccc3cccc1c23,Potency,[4],inactive
same,max response,[15],inconclusive: -31.3%
same,Potency,[6],"inconclusive: 68.6 µM [activator, single point]"
CCOC(=O)Nc1cccc(OC(=O)Nc2ccccc2)c1,Potency,[1],inactive
same,max response,[15],inactive: -20.8%
same,Potency,[6],active: 24.3 µM
same,Potency,[7],"inconclusive: 34.4 µM [activator, partial curve, poor fit]"
CC[N+](=O)[O-],"activity change, negative = inhibition",[1],inconclusive: -1.24%
same,Potency,[2],inactive
same,Potency,[3],inactive
same,activation,[16],inconclusive: -46.1%
